The text below walks through data of paper PMC10360236.

The chains behind the UniProt entries cited, without tags or fusion partners.
UniProt P55128: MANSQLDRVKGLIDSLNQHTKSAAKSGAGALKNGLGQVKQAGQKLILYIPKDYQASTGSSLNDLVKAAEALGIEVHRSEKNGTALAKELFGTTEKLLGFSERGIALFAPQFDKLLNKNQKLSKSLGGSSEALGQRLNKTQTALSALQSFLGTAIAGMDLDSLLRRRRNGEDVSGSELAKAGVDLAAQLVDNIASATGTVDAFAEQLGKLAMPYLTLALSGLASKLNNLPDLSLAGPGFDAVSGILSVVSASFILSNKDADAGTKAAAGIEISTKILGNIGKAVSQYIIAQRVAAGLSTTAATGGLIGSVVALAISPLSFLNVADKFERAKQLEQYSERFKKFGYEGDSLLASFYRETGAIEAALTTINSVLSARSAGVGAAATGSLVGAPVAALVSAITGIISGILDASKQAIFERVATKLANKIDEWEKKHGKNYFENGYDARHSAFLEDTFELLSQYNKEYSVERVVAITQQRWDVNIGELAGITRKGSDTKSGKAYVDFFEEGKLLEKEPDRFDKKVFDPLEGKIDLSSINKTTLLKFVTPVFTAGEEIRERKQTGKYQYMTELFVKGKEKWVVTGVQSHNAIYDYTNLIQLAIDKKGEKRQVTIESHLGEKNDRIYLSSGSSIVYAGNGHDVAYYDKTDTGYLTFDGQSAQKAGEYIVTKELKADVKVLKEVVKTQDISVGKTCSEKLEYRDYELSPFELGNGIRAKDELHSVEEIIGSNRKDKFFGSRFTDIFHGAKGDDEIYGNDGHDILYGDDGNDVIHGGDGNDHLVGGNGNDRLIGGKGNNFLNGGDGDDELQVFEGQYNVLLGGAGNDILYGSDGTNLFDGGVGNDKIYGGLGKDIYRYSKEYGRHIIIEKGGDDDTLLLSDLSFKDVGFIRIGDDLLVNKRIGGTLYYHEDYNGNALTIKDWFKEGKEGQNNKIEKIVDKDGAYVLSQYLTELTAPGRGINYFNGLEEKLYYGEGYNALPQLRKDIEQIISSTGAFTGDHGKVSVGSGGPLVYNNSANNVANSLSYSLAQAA

Results are given in words; binding and its absence hold for the method and conditions named. Binding seen in cells or lysates may run through a third protein. Some results given as binding are weak or reduced against the parent protein; the word gives no strength. Where a sequence is shown, tags or fusion partners need not be part of it.

In assay [1] the target is T1, Flag-CAV1 recombinant protein (porcine caveolin-1) (porcine) (UniProt Q6RVA9).
T1 sequence: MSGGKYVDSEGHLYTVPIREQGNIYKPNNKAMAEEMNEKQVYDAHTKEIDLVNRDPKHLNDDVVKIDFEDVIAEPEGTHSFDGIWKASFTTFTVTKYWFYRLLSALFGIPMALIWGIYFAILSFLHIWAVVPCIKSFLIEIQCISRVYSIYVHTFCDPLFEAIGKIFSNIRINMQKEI
Briefly: co-IP; lysate of HEK 293 T cells transfected with Flag-CAV1 (1-2 mg total protein) incubated with 2.5 ug purified HA-ApxIA for 4 h at 4 °C; precipitated with anti-Flag mAb and protein A/G beads; western blot; only the binder purified. (In western blotting, separated proteins are transferred to a membrane and probed.)

Assay [2] addresses HA-His-ApxIA fusion protein (Actinobacillus pleuropneumoniae serotype 1) (UniProt P55128). The assay can be described thus: co-IP; lysate of HEK 293 T cells transfected with Flag-CAV1 (1-2 mg total protein) incubated with 2.5 ug purified HA-ApxIA for 4 h at 4 °C; precipitated with anti-HA mAb and protein A/G beads; western blot; only the target purified.

For “HA-His-ApxIA fusion protein (from UniProt P55128 1-1023)”, the binding entry in assay [1] is “binds”.

B1: Flag-CAV1 recombinant protein (porcine caveolin-1) (protein, UniProt Q6RVA9 1-178)
chain: T1 sequence
On to B1, for which the binding result in assay [2] is reported as “binds”.
